# From patent US11161855B2, “Tricyclic fused thiophene derivatives as JAK inhibitors” (Incyte Corporation, priority 2012, dated 2021)
# Counter-ions that a name gives are not always drawn. At least one structure is not confirmed: it was looked up by name or label, or the drawing left a doubt.
# Tested on: human JAK1 (a.a. 837-1142)
# Experiment: In vitro JAK kinase assay (HTRF), JAK1
# Format: biochemical
# Details: ratio of IC50s, 1 mM ATP
# Experimental: Compounds herein were tested for inhibitory activity of JAK targets according to the following in vitro assay described in Park et al., Analytical Biochemistry 1999, 269, 94-104. The catalytic domains of human JAK1 (a.a. 837-1142), JAK2 (a.a. 828-1132) and JAK3 (a.a. 781-1124) were expressed using baculovirus in insect cells and purified. The catalytic activity of JAK1, JAK2 or JAK3 was assayed by measuring the phosphorylation of a biotinylated peptide. The phosphorylated peptide was detected by homogenous time resolved fluorescence (HTRF). IC50s of compounds were measured for each kinase in the 40 μL reactions that contain the enzyme, ATP and 500 nM peptide in 50 mM Tris (pH 7.8) buffer with 100 mM NaCl, 5 mM DTT, and 0.1 mg/mL (0.01%) BSA. For the 1 mM IC50 measurements, ATP concentration in the reactions was 1 mM. Reactions were carried out at room temperature for 1 hour and then stopped with 20 μL 45 mM EDTA, 300 nM SA-APC, 6 nM Eu-Py20 in assay buffer (Perkin Elmer, Boston, Mass.). Binding to the Europium labeled antibody took place for 40 minutes and HTRF signal was measured on a PHERA star plate reader (BMG, Cary, N.C.). The Example compounds were each tested in the Example A assay (see Table 1 for data for the compounds of the examples as tested by the assay of Example A at 1 mM ATP).
row,JAK2/JAK1,Compound
1,>10,"Cc1nc2cnc3ccsc3c2n1[C@H]1CC[C@H](CC#N)[C@H](O)C1 (mixture of isomers) [Example 34, Mixture of [(1R, 2R, 4S)-2-hydroxy-4-(2-methyl-1H-imidazo[4,5-d]thieno[3,2-b]pyridin-1-yl)cyclohexyl]acetonitrile Trifluoroacetate and [(1S, 2S, 4R)-2-hydroxy-4-(2-methyl-1H-imidazo[4,5-d]thieno[3,2-b]pyridin-1-yl)cyclohexyl]acetonitrile Trifluoroacetate]"
2,>5,"Cc1nn2cnc3ccsc3c2c1[C@H]1CC[C@H](CC#N)CC1 [Example 77, [trans-4-(8-Methylpyrazolo[1,5-c]thieno[2,3-e]pyrimidin-9-yl)cyclohexyl]acetonitrile]"
